{"source": "PubChem BioAssay AID686938 – Drosophila RNAi Screening Center | 2013", "purpose": "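Looking for CRAC channel components and the factors controlling them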 (primary screen)", "cell system": "Drosophila S2R+ cells", "knock-down reagent": "long dsRNA against Drosophila genes, about 0.25 µg dsRNA per well, roughly 10,000 cells", "timing": "5 days of knock-down before the calcium assay", "treatment": "thapsigargin (SERCA pump blocker) to empty calcium stores; entry signal taken 4 min after adding it", "measured": "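Duplicate raw fluo-4 intensities per well from a plate reader, at rest and four minutes after thapsigargin emptied calcium stores; entry-to-rest ratio filled for only some wells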", "reading the numbers": "calcium entry signal: higher = stronger calcium signal after store depletion; resting calcium signal: higher = higher resting calcium signal", "active means": "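Called when the plate z-score of the entry-to-rest ratio, mean of duplicates, falls below −3; wells with low overall dye signal (Fmax z below −2) or more than five off-targets excluded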", "calls": "active = strongly reduced calcium entry; inactive = no strong reduction", "note": "In all, the deposit lists about 23,000 reagents; below is a random part of those with a known target gene and a result. Over the whole deposit, 75 (0.33%) got an active call. 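Raw plate signals without normalisation; calls rest on plate z-scores that were not deposited; ratio present for only 364 wells.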 Reagents against one gene are numbered here. A plus sign joins genes that one reagent is predicted to hit. No sequences are given here. The record does not give: the dose of the treatment."}
{"target": "CG13449", "dsRNA no.": 1, "calcium entry signal, replicate 1 (fluorescence units)": 4.67e7, "calcium entry signal, replicate 2 (fluorescence units)": 6.19e7, "resting calcium signal, replicate 1 (fluorescence units)": 2.27e7, "resting calcium signal, replicate 2 (fluorescence units)": 2.60e7, "activity call": "inactive"}
{"target": "CG13287", "dsRNA no.": 1, "calcium entry signal, replicate 1 (fluorescence units)": 5.93e7, "calcium entry signal, replicate 2 (fluorescence units)": 3.17e7, "resting calcium signal, replicate 1 (fluorescence units)": 2.70e7, "resting calcium signal, replicate 2 (fluorescence units)": 1.83e7, "activity call": "inactive"}
{"target": "CG15879", "dsRNA no.": 1, "calcium entry signal, replicate 1 (fluorescence units)": 3.34e7, "calcium entry signal, replicate 2 (fluorescence units)": 3.05e7, "resting calcium signal, replicate 1 (fluorescence units)": 1.61e7, "resting calcium signal, replicate 2 (fluorescence units)": 1.55e7, "activity call": "inactive"}
{"target": "CG7800", "dsRNA no.": 1, "calcium entry signal, replicate 1 (fluorescence units)": 5.36e7, "calcium entry signal, replicate 2 (fluorescence units)": 3.85e7, "resting calcium signal, replicate 1 (fluorescence units)": 2.70e7, "resting calcium signal, replicate 2 (fluorescence units)": 2.00e7, "activity call": "inactive"}
{"target": "CG15580", "dsRNA no.": 1, "calcium entry signal, replicate 1 (fluorescence units)": 4.52e7, "calcium entry signal, replicate 2 (fluorescence units)": 4.29e7, "resting calcium signal, replicate 1 (fluorescence units)": 2.31e7, "resting calcium signal, replicate 2 (fluorescence units)": 2.08e7, "activity call": "inactive"}
{"target": "DCTN5-p25", "dsRNA no.": 1, "calcium entry signal, replicate 1 (fluorescence units)": 4.10e7, "calcium entry signal, replicate 2 (fluorescence units)": 2.52e7, "resting calcium signal, replicate 1 (fluorescence units)": 2.00e7, "resting calcium signal, replicate 2 (fluorescence units)": 1.19e7, "activity call": "inactive"}
{"target": "CG31805", "dsRNA no.": 1, "calcium entry signal, replicate 1 (fluorescence units)": 2.64e7, "calcium entry signal, replicate 2 (fluorescence units)": 3.40e7, "resting calcium signal, replicate 1 (fluorescence units)": 1.52e7, "resting calcium signal, replicate 2 (fluorescence units)": 1.66e7, "activity call": "inactive"}
{"target": "amd", "dsRNA no.": 1, "calcium entry signal, replicate 1 (fluorescence units)": 5.94e7, "calcium entry signal, replicate 2 (fluorescence units)": 2.71e7, "resting calcium signal, replicate 1 (fluorescence units)": 2.85e7, "resting calcium signal, replicate 2 (fluorescence units)": 1.45e7, "activity call": "inactive"}
{"target": "amd", "dsRNA no.": 2, "calcium entry signal, replicate 1 (fluorescence units)": 4.97e7, "calcium entry signal, replicate 2 (fluorescence units)": 5.97e7, "resting calcium signal, replicate 1 (fluorescence units)": 2.59e7, "resting calcium signal, replicate 2 (fluorescence units)": 2.40e7, "activity call": "inactive"}
{"target": "PTP-ER", "dsRNA no.": 1, "calcium entry signal, replicate 1 (fluorescence units)": 3.79e7, "resting calcium signal, replicate 1 (fluorescence units)": 2.06e7, "activity call": "inactive"}
{"target": "PTP-ER", "dsRNA no.": 2, "calcium entry signal, replicate 1 (fluorescence units)": 4.03e7, "calcium entry signal, replicate 2 (fluorescence units)": 4.58e7, "resting calcium signal, replicate 1 (fluorescence units)": 1.78e7, "resting calcium signal, replicate 2 (fluorescence units)": 1.93e7, "activity call": "inactive"}
{"target": "CG7016", "dsRNA no.": 1, "calcium entry signal, replicate 1 (fluorescence units)": 3.59e7, "calcium entry signal, replicate 2 (fluorescence units)": 2.50e7, "resting calcium signal, replicate 1 (fluorescence units)": 1.65e7, "resting calcium signal, replicate 2 (fluorescence units)": 1.19e7, "activity call": "inactive"}
{"target": "CG1835", "dsRNA no.": 1, "calcium entry signal, replicate 1 (fluorescence units)": 5.74e7, "calcium entry signal, replicate 2 (fluorescence units)": 4.63e7, "resting calcium signal, replicate 1 (fluorescence units)": 2.73e7, "resting calcium signal, replicate 2 (fluorescence units)": 2.09e7, "activity call": "inactive"}
{"target": "koko + Vti1b", "dsRNA no.": 1, "calcium entry signal, replicate 1 (fluorescence units)": 4.87e7, "calcium entry signal, replicate 2 (fluorescence units)": 3.98e7, "resting calcium signal, replicate 1 (fluorescence units)": 2.22e7, "resting calcium signal, replicate 2 (fluorescence units)": 1.75e7, "activity call": "inactive"}
{"target": "koko + Vti1b", "dsRNA no.": 2, "calcium entry signal, replicate 1 (fluorescence units)": 5.05e7, "calcium entry signal, replicate 2 (fluorescence units)": 3.89e7, "resting calcium signal, replicate 1 (fluorescence units)": 6.05e7, "resting calcium signal, replicate 2 (fluorescence units)": 1.71e7, "activity call": "inactive"}
{"target": "CG10494", "dsRNA no.": 1, "calcium entry signal, replicate 1 (fluorescence units)": 4.44e7, "resting calcium signal, replicate 1 (fluorescence units)": 2.30e7, "activity call": "inactive"}
{"target": "Dr", "dsRNA no.": 1, "calcium entry signal, replicate 1 (fluorescence units)": 3.06e7, "calcium entry signal, replicate 2 (fluorescence units)": 4.88e7, "resting calcium signal, replicate 1 (fluorescence units)": 1.48e7, "resting calcium signal, replicate 2 (fluorescence units)": 2.48e7, "activity call": "inactive"}
{"target": "Dr", "dsRNA no.": 2, "calcium entry signal, replicate 1 (fluorescence units)": 3.61e7, "calcium entry signal, replicate 2 (fluorescence units)": 2.75e7, "resting calcium signal, replicate 1 (fluorescence units)": 2.00e7, "resting calcium signal, replicate 2 (fluorescence units)": 1.34e7, "activity call": "inactive"}
{"target": "MnM", "dsRNA no.": 1, "calcium entry signal, replicate 1 (fluorescence units)": 3.29e7, "calcium entry signal, replicate 2 (fluorescence units)": 2.88e7, "resting calcium signal, replicate 1 (fluorescence units)": 1.85e7, "resting calcium signal, replicate 2 (fluorescence units)": 1.49e7, "activity call": "inactive"}
{"target": "CG18284", "dsRNA no.": 1, "calcium entry signal, replicate 1 (fluorescence units)": 4.81e7, "resting calcium signal, replicate 1 (fluorescence units)": 2.18e7, "activity call": "inactive"}
{"target": "CG18284", "dsRNA no.": 2, "calcium entry signal, replicate 1 (fluorescence units)": 5.16e7, "calcium entry signal, replicate 2 (fluorescence units)": 3.97e7, "resting calcium signal, replicate 1 (fluorescence units)": 2.32e7, "resting calcium signal, replicate 2 (fluorescence units)": 1.87e7, "activity call": "inactive"}

Entries listed so far whose gene name begins with D or d:
{"target": "DCTN5-p25", "dsRNA no.": 1, "calcium entry signal, replicate 1 (fluorescence units)": 4.10e7, "calcium entry signal, replicate 2 (fluorescence units)": 2.52e7, "resting calcium signal, replicate 1 (fluorescence units)": 2.00e7, "resting calcium signal, replicate 2 (fluorescence units)": 1.19e7, "activity call": "inactive"}
{"target": "Dr", "dsRNA no.": 1, "calcium entry signal, replicate 1 (fluorescence units)": 3.06e7, "calcium entry signal, replicate 2 (fluorescence units)": 4.88e7, "resting calcium signal, replicate 1 (fluorescence units)": 1.48e7, "resting calcium signal, replicate 2 (fluorescence units)": 2.48e7, "activity call": "inactive"}
{"target": "Dr", "dsRNA no.": 2, "calcium entry signal, replicate 1 (fluorescence units)": 3.61e7, "calcium entry signal, replicate 2 (fluorescence units)": 2.75e7, "resting calcium signal, replicate 1 (fluorescence units)": 2.00e7, "resting calcium signal, replicate 2 (fluorescence units)": 1.34e7, "activity call": "inactive"}
